The test system of the assay is HEK293A TEAD-LUC reporter. Nature of the assay: TEAD-luciferase reporter activity (YAP activation), robust Z score vs plate; higher = stronger YAP/TEAD activation. As to conditions: 24 h. In general terms: A reporter such as luciferase makes a cellular process visible.

Molecules are shown by their SMILES. Structures can show the parent of a compound that is named as a salt. The list shows a part of the results. This data set is noisy: repeats of one test often differ as much as different tests do.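 Human kidney-derived cells stably carry a construct in which eight TEAD-binding elements drive luciferase, measured by luminescence in a drug-repurposing library screen. A hit is any compound whose signal exceeds the plate mean by more than five robust Z scores.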

For the compound `CCCNC(=O)COc1c(C(=O)Cc2c(Cl)cncc2Cl)ccc(OC)c1OC`, the TEAD-luciferase reporter activity is, setting by setting: (compound concentration: 200 nM) inactive: 0.477; (compound concentration: 2 uM) inactive: -0.333; (compound concentration: 10 uM) inactive: -1.32.
For `COC(=O)N[C@H](C(=O)N1CCC[C@H]1c1nc2cc([C@H]3CC[C@H](c4cc5nc([C@@H]6CCCN6C(=O)[C@@H](NC(=O)OC)[C@@H](C)OC)[nH]c5cc4F)N3c3cc(F)c(N4CCC(c5ccc(F)cc5)CC4)c(F)c3)c(F)cc2[nH]1)[C@@H](C)OC` [Pibrentasvir] the same measures were inactive: -1.01, inactive: -1.57 and inactive: -0.0619.
In the same order, the values of `NS(=O)(=O)c1ccc(N2C(=O)CC(c3ccccc3)C2=O)c(Cl)c1` (stereo not given) are inactive: -1.21, inactive: -0.59 and inactive: -2.07.
Take `C[C@@H]1CN(c2nc3c(cc2F)c(=O)c(C(=O)O)cn3C(C)(C)C)C[C@H]1N`: the TEAD-luciferase reporter activity reads like this: (compound concentration: 200 nM) inactive: 0.211; (compound concentration: 2 uM) inactive: 0.569; (compound concentration: 10 uM) inactive: 3.61.
In the case of `O=C1N=C(O)NC1(c1ccccc1)c1ccccc1` [phenytoin sodium], the TEAD-luciferase reporter activity is, setting by setting: (compound concentration: 200 nM) inactive: 2.05; (compound concentration: 10 uM) inactive: 1.77.
In the case of `O=C1N=C(O)NC1(c1ccccc1)c1ccccc1` [Phenytoin sodium], where the note is “compound concentration: 2 uM”, the TEAD-luciferase reporter activity was inactive: 3.35.
Regarding `COC(=O)C1c2cc3c(c(O)c2C(O[C@@H]2O[C@@H](C)[C@H](OC)[C@@](C)(OC)[C@H]2OC)CC1(C)O)C(=O)c1c(O)cc2c(c1C3=O)OC1OC2(C)C(O)C(N(C)C)C1O` (stereo not given in full) [Nogalamycin], the TEAD-luciferase reporter activity (compound concentration: 200 nM) is inactive: -1.09, the TEAD-luciferase reporter activity (compound concentration: 2 uM) was inactive: 0.531 and the TEAD-luciferase reporter activity (compound concentration: 10 uM) is inactive: 1.41.
In the same order, the values of `Cc1c(CC(C)C)sc2nc(C(=O)O)[nH]c(=O)c12` [tiprinast] are inactive: 0.795, inactive: -0.419 and inactive: 2.93.
For the compound `CC[N+](CC)(CCO)C1c2ccccc2-c2ccccc21`, the TEAD-luciferase reporter activity (compound concentration: 200 nM) was inactive: -1.63, the TEAD-luciferase reporter activity (compound concentration: 2 uM) was inactive: -1.34 and the TEAD-luciferase reporter activity (compound concentration: 10 uM) was inactive: 0.583.
Consider `O=C(CCOc1ccc(Cl)cc1Cl)NC[C@H]1CN(c2ccc(N3CCOCC3)c(F)c2)C(=O)O1`, for which the TEAD-luciferase reporter activity reads like this: (compound concentration: 200 nM) inactive: -0.349; (compound concentration: 2 uM) inactive: -0.658; (compound concentration: 10 uM) inactive: 2.21.
For the compound `CC(C)Cc1c[nH]c(C(=O)O)c1`, the TEAD-luciferase reporter activity reads like this: (compound concentration: 200 nM) inactive: 0.0627; (compound concentration: 2 uM) inactive: 1.38; (compound concentration: 10 uM) inactive: 1.38.
Take `COc1cc2cc(C3=NNC(=O)CC3C)sc2cc1OC` (stereo not given): the TEAD-luciferase reporter activity by setting is: (compound concentration: 200 nM) inactive: 0.298; (compound concentration: 2 uM) inactive: -0.245; (compound concentration: 10 uM) inactive: -0.943.
For `O=C1CCC[C@H](c2ccccc2)C1`, the TEAD-luciferase reporter activity is, setting by setting: (compound concentration: 200 nM) inactive: -0.238; (compound concentration: 2 uM) inactive: 0.0571; (compound concentration: 10 uM) inactive: -0.52.
Consider `CCOC(=O)c1cnc2cc(OCC(C)C)c(OCC(C)C)cc2c1O`, for which the TEAD-luciferase reporter activity by setting is: (compound concentration: 200 nM) inactive: 1.3; (compound concentration: 10 uM) inactive: -0.429.
As for `CCOC(=O)c1cnc2cc(OCC(C)C)c(OCC(C)C)cc2c1O` [Buquinolate], the TEAD-luciferase reporter activity (compound concentration: 2 uM) was inactive: 0.974.
Regarding `CCC(C)NC(C)(C)C(C)C` (stereo not given), the TEAD-luciferase reporter activity is inactive: -1.12 (compound concentration: 200 nM), inactive: -1.86 (compound concentration: 2 uM) and inactive: 0.652 (compound concentration: 10 uM).
Turning to `C[C@H]1C[C@@H](n2c(Nc3ccc(OC(F)(F)F)cc3)nc3cc(CCC(=O)O)ccc32)CC(C)(C)C1`, the TEAD-luciferase reporter activity (compound concentration: 200 nM) is inactive: -0.157, the TEAD-luciferase reporter activity (compound concentration: 2 uM) was inactive: -1.33 and the TEAD-luciferase reporter activity (compound concentration: 10 uM) is inactive: -0.227.
For `NC1CCN(c2cccc(Cl)n2)CC1`, the TEAD-luciferase reporter activity reads like this: (compound concentration: 200 nM) inactive: 0.405; (compound concentration: 2 uM) inactive: -1.14; (compound concentration: 10 uM) inactive: 0.804.
For `Cc1c(-c2ccc(C(=O)N3CCC(C#N)CC3)s2)noc1C(F)(F)F`, the TEAD-luciferase reporter activity is inactive: -1.08 (compound concentration: 200 nM), inactive: 0.574 (compound concentration: 2 uM) and inactive: -1.19 (compound concentration: 10 uM).
In the same order, the values of `Cc1nnc(SCC2=C(C(=O)O)N3C(=O)[C@@H](NC(=O)Cn4cc(Cl)c(=O)c(Cl)c4)[C@H]3SC2)s1` [cefazedone sodium] are inactive: -0.546, inactive: -0.767 and inactive: 0.196.
In the same order, the values of `CCOc1nc2cccc(C(=O)OC(C)OC(=O)C3C[C@H](OC)[C@@H](O[N+](=O)[O-])C3)c2n1Cc1ccc(-c2ccccc2-c2nnn[nH]2)cc1` (stereo not given in full) are inactive: -0.95, inactive: -1.04 and inactive: 2.
With `CC[C@H]1OC(=O)[C@H](C)C(=O)[C@H](C)[C@@H](O[C@@H]2O[C@H](C)C[C@H](N(C)C)[C@H]2O)[C@](C)(OC)C[C@@H](C)C(=O)[C@H](C)[C@H]2N(NCCCc3ccnc4ccccc34)C(=O)O[C@]12C`, the TEAD-luciferase reporter activity runs as follows: (compound concentration: 200 nM) inactive: 0.631; (compound concentration: 2 uM) inactive: 0.528; (compound concentration: 10 uM) inactive: 1.79.
In the same order, the values of `COc1cc(CC(=O)N[C@@H](CC(C)C)c2cc(CCC(=O)O)on2)ccc1NC(=O)Nc1ccccc1C` are inactive: 0.312, inactive: 0.926 and inactive: 3.64.
With `O=C(c1ccc2c(c1)OCO2)N1CCN(C2CCNCC2)C(=O)C1`, the TEAD-luciferase reporter activity runs as follows: (compound concentration: 200 nM) inactive: 1.44; (compound concentration: 10 uM) inactive: 2.5.
Turning to `Cc1nc(C)c(C)nc1C` [Chuanxiongzine], the TEAD-luciferase reporter activity runs as follows: (compound concentration: 200 nM) inactive: -0.195; (compound concentration: 2 uM) inactive: -2.13; (compound concentration: 10 uM) active: 5.61.
In the case of `Cc1nc(C)c(C)nc1C` [Ligustrazine HCl], the TEAD-luciferase reporter activity (compound concentration: 2 uM) is inactive: -0.895.
Turning to `Cc1cc(C)nc(NS(=O)(=O)c2ccc(/N=N/c3ccc(O)c(C(=O)O)c3)cc2)n1`, the TEAD-luciferase reporter activity runs as follows: (compound concentration: 200 nM) inactive: 0.645; (compound concentration: 2 uM) inactive: -0.886; (compound concentration: 10 uM) inactive: -0.837.
In the same order, the values of `CCCCCCCCCCCCCCCCCCOP(=O)(O)OC[C@H]1O[C@@H](n2ccc(N)nc2=O)[C@@H](O)[C@@H]1O` are inactive: -1.18, inactive: -0.0773 and inactive: 1.53.

For the origin of these results see the supplement of paper PMC10735217.
